Measurements from the supplement of paper PMC10849652.
Some of the results follow.

Chains of the proteins cited; added tags and fusions are not shown. Lines headed by an entry give the natural chain unless they say otherwise; changes in a name come on top.
UniProt O15269: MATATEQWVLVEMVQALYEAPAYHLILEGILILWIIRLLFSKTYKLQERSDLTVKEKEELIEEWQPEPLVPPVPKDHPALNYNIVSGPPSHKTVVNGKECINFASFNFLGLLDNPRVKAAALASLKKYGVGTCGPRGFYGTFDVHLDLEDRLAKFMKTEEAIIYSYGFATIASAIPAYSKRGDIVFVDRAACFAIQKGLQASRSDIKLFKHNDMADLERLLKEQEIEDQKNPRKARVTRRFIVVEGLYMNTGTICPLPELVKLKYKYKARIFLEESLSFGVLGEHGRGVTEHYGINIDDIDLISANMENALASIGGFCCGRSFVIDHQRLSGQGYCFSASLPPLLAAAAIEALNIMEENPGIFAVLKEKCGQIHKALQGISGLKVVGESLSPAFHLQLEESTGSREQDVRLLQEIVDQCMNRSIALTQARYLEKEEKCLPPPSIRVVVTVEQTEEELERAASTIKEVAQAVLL
UniProt P37108: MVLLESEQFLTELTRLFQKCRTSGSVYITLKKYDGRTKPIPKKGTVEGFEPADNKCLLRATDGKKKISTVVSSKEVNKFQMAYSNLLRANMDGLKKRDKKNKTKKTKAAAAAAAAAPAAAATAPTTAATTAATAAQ
UniProt P09486: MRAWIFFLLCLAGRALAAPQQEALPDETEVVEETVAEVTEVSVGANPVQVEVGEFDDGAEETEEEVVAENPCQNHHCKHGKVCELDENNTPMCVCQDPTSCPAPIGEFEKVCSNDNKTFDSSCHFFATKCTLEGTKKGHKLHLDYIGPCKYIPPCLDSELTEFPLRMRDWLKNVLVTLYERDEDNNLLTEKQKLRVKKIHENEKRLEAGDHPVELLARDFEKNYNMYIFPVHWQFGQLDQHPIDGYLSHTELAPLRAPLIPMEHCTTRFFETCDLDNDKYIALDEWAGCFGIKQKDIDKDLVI
UniProt Q04837: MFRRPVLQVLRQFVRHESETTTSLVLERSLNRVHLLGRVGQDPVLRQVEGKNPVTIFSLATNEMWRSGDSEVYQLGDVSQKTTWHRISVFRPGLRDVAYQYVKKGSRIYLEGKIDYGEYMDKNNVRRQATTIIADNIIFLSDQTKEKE
UniProt P09132: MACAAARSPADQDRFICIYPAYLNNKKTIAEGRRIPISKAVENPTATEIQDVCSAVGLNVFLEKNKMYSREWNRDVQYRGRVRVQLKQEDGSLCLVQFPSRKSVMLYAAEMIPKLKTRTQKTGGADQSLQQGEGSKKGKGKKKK
UniProt P42224: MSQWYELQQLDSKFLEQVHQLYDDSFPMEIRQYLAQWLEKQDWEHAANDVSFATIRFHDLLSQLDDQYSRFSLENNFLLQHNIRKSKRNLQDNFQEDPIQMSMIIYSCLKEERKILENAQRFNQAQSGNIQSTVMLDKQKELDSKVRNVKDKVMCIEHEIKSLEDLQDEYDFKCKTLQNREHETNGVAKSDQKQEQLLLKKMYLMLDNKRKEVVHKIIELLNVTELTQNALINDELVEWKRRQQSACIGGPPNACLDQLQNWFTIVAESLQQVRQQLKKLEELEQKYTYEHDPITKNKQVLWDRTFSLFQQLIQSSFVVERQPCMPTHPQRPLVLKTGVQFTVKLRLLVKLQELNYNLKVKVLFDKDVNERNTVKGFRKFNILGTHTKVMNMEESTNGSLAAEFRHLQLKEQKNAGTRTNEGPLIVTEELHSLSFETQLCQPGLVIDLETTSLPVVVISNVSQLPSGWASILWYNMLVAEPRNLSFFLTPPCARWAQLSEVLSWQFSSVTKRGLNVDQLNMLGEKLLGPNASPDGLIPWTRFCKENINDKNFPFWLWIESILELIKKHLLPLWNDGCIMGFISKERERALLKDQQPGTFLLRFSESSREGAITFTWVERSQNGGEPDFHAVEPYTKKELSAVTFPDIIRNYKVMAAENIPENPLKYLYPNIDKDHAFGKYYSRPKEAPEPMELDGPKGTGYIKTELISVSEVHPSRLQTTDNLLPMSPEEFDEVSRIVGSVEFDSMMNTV
UniProt Q15831: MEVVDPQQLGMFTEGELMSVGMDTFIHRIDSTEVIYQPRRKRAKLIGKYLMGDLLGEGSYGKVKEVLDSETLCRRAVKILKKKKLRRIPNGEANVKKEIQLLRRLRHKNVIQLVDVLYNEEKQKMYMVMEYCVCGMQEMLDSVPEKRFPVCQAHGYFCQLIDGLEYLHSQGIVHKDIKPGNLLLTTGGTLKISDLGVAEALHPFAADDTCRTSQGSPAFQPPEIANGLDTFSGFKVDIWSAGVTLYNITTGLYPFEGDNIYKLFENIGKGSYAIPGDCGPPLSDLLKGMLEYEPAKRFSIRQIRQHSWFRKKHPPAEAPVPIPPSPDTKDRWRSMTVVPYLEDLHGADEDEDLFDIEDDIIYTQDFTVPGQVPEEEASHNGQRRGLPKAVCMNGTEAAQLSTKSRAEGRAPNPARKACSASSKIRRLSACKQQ
UniProt O95630, whole entry, looked up: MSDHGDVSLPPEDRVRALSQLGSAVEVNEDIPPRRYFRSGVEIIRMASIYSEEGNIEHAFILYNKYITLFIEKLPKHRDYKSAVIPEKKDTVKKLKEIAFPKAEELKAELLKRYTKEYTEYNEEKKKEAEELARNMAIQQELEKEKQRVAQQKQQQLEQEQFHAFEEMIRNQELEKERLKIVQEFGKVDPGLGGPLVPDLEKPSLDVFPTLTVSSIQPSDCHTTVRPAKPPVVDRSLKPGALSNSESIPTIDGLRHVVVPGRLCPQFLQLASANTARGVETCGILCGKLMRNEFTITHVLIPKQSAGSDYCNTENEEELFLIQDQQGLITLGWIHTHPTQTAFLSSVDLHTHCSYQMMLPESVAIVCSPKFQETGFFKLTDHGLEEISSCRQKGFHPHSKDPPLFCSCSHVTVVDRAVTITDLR
UniProt P19623: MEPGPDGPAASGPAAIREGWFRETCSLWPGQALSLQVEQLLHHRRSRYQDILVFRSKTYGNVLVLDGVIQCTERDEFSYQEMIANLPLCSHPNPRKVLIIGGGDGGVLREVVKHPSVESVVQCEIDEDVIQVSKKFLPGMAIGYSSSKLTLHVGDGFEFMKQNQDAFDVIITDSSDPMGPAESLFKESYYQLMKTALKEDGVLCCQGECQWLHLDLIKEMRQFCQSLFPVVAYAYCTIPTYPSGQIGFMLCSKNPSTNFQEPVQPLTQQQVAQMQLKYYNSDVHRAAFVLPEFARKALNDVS
UniProt Q07955, whole entry, looked up: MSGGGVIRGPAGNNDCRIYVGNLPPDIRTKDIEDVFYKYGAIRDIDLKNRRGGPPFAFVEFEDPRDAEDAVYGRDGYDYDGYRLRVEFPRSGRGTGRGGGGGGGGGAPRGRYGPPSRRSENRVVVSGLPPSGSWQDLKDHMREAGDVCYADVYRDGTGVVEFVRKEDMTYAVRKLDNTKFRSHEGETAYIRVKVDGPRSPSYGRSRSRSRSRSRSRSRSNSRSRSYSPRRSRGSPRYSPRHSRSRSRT
UniProt P31948, whole entry, looked up: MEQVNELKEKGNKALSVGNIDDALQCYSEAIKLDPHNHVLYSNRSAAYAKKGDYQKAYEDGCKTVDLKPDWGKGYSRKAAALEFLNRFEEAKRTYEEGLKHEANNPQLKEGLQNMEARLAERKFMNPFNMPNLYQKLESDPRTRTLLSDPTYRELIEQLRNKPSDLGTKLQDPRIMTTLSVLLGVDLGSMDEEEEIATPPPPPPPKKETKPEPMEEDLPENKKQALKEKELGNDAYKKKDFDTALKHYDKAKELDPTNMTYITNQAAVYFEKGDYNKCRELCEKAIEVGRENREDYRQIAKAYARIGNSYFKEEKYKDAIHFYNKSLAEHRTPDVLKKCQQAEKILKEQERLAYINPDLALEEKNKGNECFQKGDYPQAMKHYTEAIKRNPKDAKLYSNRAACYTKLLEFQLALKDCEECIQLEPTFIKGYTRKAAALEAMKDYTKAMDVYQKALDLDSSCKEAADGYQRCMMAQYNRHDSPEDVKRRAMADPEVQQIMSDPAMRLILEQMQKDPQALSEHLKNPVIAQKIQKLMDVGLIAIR
UniProt O15270: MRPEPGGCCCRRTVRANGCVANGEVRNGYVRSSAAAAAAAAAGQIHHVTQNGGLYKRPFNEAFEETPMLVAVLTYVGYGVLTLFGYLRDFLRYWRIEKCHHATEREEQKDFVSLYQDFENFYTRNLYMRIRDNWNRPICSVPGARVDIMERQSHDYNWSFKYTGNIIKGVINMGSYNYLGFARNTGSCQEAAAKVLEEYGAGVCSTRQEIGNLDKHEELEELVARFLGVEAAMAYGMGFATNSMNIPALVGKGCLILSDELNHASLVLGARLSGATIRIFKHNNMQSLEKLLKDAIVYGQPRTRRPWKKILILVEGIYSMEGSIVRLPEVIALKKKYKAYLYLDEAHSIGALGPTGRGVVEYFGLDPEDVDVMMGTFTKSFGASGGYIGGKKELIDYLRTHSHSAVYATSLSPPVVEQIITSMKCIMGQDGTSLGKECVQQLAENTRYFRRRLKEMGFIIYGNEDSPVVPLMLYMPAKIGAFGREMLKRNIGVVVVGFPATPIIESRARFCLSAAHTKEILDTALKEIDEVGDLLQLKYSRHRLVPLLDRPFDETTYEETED
UniProt P10124: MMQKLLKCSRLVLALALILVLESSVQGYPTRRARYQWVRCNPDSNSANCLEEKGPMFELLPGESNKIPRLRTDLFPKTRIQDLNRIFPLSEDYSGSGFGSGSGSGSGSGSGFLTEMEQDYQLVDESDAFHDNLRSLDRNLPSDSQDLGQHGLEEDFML
UniProt Q9NRC1: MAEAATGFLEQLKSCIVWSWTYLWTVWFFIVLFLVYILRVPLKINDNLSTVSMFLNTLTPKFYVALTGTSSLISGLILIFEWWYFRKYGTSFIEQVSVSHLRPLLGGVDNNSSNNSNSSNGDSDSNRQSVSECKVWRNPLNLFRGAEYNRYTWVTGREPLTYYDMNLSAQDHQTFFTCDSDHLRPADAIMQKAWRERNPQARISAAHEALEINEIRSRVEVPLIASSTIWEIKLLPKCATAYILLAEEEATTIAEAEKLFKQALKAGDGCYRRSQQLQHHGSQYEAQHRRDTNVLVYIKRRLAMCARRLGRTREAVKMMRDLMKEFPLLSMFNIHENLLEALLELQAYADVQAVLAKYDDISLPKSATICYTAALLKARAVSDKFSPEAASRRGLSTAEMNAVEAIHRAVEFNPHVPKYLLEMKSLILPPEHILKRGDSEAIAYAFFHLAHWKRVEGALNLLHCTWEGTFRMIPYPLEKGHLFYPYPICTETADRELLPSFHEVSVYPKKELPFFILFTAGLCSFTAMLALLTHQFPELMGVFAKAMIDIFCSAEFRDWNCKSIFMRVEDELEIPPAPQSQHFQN
UniProt Q9GZT4: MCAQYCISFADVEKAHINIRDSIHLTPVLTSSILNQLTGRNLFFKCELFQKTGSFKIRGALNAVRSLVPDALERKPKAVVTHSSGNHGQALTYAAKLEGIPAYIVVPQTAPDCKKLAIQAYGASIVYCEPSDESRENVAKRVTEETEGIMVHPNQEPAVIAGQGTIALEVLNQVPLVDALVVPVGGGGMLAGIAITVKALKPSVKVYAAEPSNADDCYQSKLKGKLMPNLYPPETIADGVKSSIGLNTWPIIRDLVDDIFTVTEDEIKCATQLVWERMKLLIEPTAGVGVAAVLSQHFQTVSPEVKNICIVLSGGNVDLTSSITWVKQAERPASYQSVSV
UniProt O43805: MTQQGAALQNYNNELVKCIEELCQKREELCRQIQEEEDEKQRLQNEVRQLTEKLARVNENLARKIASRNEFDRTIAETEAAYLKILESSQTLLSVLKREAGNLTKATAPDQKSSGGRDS

Columns and labels:
Assay in all cases: log2 fold change, soluble protein after heating vs DMSO (PISA); higher = thermal stabilisation; K562 cells, 10 uM, 30 min; active = over 0.2 and 3.5 SD of the protein, either way, in both replicates (recomputed)
[1] = compound: CC1=C(C=C(C=C1)NC(=O)C2=CC(=CC=C2)C(C)(C)C#N)NC3=CC4=C(C=C3)N=CN(C4=O)C
Summary of the method: (§1)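 Quantification of soluble protein used TMTpro 16plex LC-MS/MS, with channel sums equalised. Samples were the supernatant after 21,000xg for 90 min of pooled aliquots from K562 cells (2×10^6 cells/mL) treated with 10 μM compound for 30 min, heated for 3 min over 48°C-58°C, and extracted in PBS with 0.5% NP-40 at 4°C. Values, from duplicates, describe thermal stability against control samples on a log2 fold-change scale.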

[2] = compound: CC1=C(C=C(C=C1)NC(=O)C2=CC(=CC=C2)N(C)C)NC(=O)C3=CC=C(C=C3)O
Summary of the method: as §1

[3] = compound: CC1=CC=C(C=C1)SC2=C3C=C(SC3=CN=C2)C(=O)N
Summary of the method: as §1

[4] = compound: CC1=NC(=CC=C1)C2=C(N=C(N2)C(C)(C)C)C3=CC4=NC=CN=C4C=C3
Summary of the method: as §1

Nexturastat A = compound: CCCCN(Cc1ccc(C(=O)NO)cc1)C(=O)Nc1ccccc1 [Nexturastat A]
Summary of the method: as §1

vemurafenib = compound: CCCS(=O)(=O)Nc1ccc(F)c(C(=O)c2c[nH]c3ncc(-c4ccc(Cl)cc4)cc23)c1F [vemurafenib]
Summary of the method: as §1

[5] = compound: CCCS(=O)(=O)Nc1ccc(F)c(C(=O)c2c[nH]c3ncc(Cl)cc23)c1F
Summary of the method: as §1

[6] = compound: CCCc1cc(C)[nH]c(=O)c1CNC(=O)c1cc(-c2ccnc(N3CCN(C)CC3)c2)cc2c1cnn2C(C)C
Summary of the method: as §1

givinostat = compound: CCN(CC)Cc1ccc2cc(COC(=O)Nc3ccc(C(=O)NO)cc3)ccc2c1 [givinostat]
Summary of the method: as §1

barasertib = compound: CCN(CCCOc1ccc2c(Nc3cc(CC(=O)Nc4cccc(F)c4)[nH]n3)ncnc2c1)CCOP(=O)(O)O [barasertib]
Summary of the method: as §1

[7] = compound: CC[C@@H]1C(=O)N(C)c2cnc(Nc3ccc(C(=O)NC4CCN(C)CC4)cc3OC)nc2N1C1CCCC1
Summary of the method: as §1

volasertib = compound: CC[C@@H]1C(=O)N(C)c2cnc(Nc3ccc(C(=O)N[C@H]4CC[C@H](N5CCN(CC6CC6)CC5)CC4)cc3OC)nc2N1C(C)C [volasertib]
Summary of the method: as §1

[8] = compound: CC[C@H](C)N1C=C(C2=C(C=C(C=C21)C3=CN=C(C=C3)N4CCNCC4)C(=O)NCC5=C(C=C(NC5=O)C)C)C
Summary of the method: as §1

epoxomicin = compound: CC[C@H](C)[C@@H](C(=O)N[C@@H]([C@@H](C)O)C(=O)N[C@@H](CC(C)C)C(=O)[C@]1(CO1)C)NC(=O)[C@H]([C@@H](C)CC)N(C)C(=O)C [epoxomicin]
Summary of the method: as §1

[9] = compound: CCn1c(C(=O)N(C2CC2)C2CC2)cc2c3c(ncn3C)c(Nc3cc(C)n(C)n3)nc21
Summary of the method: as §1

[10] = compound: CCn1cc(-c2ccnc3[nH]c(-c4cccc(CN(C)C)c4)cc23)c(-c2ccc(NC(=O)N(C)C)cc2)n1
Summary of the method: as §1

[11] = compound: CN(C)CC(=O)Nc1ccc2[nH]c(=O)c3ccccc3c2c1
Summary of the method: as §1

rosiglitazone = compound: CN(CCOC1=CC=C(C=C1)C[C@H]2C(=O)NC(=O)S2)C3=CC=CC=N3 (racemic) [rosiglitazone]
Summary of the method: as §1

[12] = compound: CN1C2=C(C3=C1C(=O)N(N=C3)CC4=CC(=CC=C4)N)SC(=C2)S(=O)C
Summary of the method: as §1

[13] = compound: CN1CCC(CNc2ccc3ncc(-c4cccc(OC(F)(F)F)c4)n3n2)CC1
Summary of the method: as §1

Measured: log2 fold change

SPTLC1 (UniProt O15269)
inactive: [1] 0.074 | [2] 0.03 | [3] 0.08 | [4] -0.044 | Nexturastat A -0.006 | vemurafenib 0.026 | [5] 0.067 | [6] 0.105 | givinostat 0.044 | barasertib 0.048 | [7] -0.001 | volasertib -0.178 | [8] 0.135 | epoxomicin 0.043 | [9] -0.03 | [10] -0.079 | [11] 0.045 | rosiglitazone 0.018 | [12] -0.013 | [13] 0.018

SRP14 (UniProt P37108)
inactive: [1] -0.052 | [2] 0.013 | [3] -0.047 | [4] -0.24 | Nexturastat A 0.291 | vemurafenib -0.161 | [5] -0.087 | [6] 0.111 | givinostat 0.035 | barasertib -0.09 | [7] 0.165 | volasertib 0.354 | [8] -0.033 | epoxomicin -0.263 | [9] -0.004 | [10] 0.208 | [11] -0.15 | rosiglitazone -0.123 | [12] 0.29 | [13] 0.266

SPARC (UniProt P09486)
inactive: [1] 0.011 | [2] 0.117 | [3] -0.018 | [4] 0.054 | Nexturastat A 0.079 | vemurafenib 0.07 | [5] -0.029 | [6] -0.027 | givinostat 0.015 | barasertib -0.006 | [7] 0.103 | volasertib 0.015 | [8] -0.012 | epoxomicin -0.08 | [9] 0.065 | [10] -0.025 | [11] 0.05 | rosiglitazone -0.028 | [12] 0.119 | [13] 0.055

SSBP1 (UniProt Q04837)
inactive: [1] -0.052 | [2] -0.006 | [3] -0.023 | [4] -0.105 | Nexturastat A 0.052 | vemurafenib -0.04 | [5] -0.054 | [6] -0.036 | givinostat -0.004 | barasertib -0.015 | [7] 0.021 | volasertib 0.164 | [8] -0.064 | epoxomicin -0.013 | [9] 0.028 | [10] 0.029 | [11] -0.039 | rosiglitazone -0.024 | [12] 0.04 | [13] 0.025

SRP19 (UniProt P09132)
inactive: [1] 0.023 | [2] -0.011 | [3] 0.106 | [4] -0.006 | Nexturastat A 0.045 | vemurafenib 0.011 | [5] 0.078 | [6] -0.048 | givinostat 0.02 | barasertib 0.052 | [7] -0.029 | volasertib -0.249 | [8] 0.04 | epoxomicin 0.001 | [9] -0.199 | [10] -0.031 | [11] 0.043 | rosiglitazone 0.001 | [12] 0.015 | [13] 0.058

Reprinted at random: 2 records from the list.
SRP14 (UniProt P37108)
inactive: [1] -0.052 | [2] 0.013 | [3] -0.047 | [4] -0.24 | Nexturastat A 0.291 | vemurafenib -0.161 | [5] -0.087 | [6] 0.111 | givinostat 0.035 | barasertib -0.09 | [7] 0.165 | volasertib 0.354 | [8] -0.033 | epoxomicin -0.263 | [9] -0.004 | [10] 0.208 | [11] -0.15 | rosiglitazone -0.123 | [12] 0.29 | [13] 0.266

SSBP1 (UniProt Q04837)
inactive: [1] -0.052 | [2] -0.006 | [3] -0.023 | [4] -0.105 | Nexturastat A 0.052 | vemurafenib -0.04 | [5] -0.054 | [6] -0.036 | givinostat -0.004 | barasertib -0.015 | [7] 0.021 | volasertib 0.164 | [8] -0.064 | epoxomicin -0.013 | [9] 0.028 | [10] 0.029 | [11] -0.039 | rosiglitazone -0.024 | [12] 0.04 | [13] 0.025

Carrying on:

STAT1 (UniProt P42224)
inactive: [1] 0.028 | [2] 0.026 | [3] 0.069 | [4] -0.068 | Nexturastat A 0.444 | vemurafenib 0.115 | [5] 0.13 | [6] 0.198 | givinostat 0.144 | barasertib -0.07 | [7] 0.029 | volasertib -0.085 | [8] 0.086 | epoxomicin -0.028 | [9] -0.041 | [10] -0.039 | [11] -0.03 | rosiglitazone 0.049 | [12] 0.262 | [13] -0.041

STK11 (UniProt Q15831)
inactive: [1] -0.075 | [2] -0.001 | [3] 0.03 | [4] -0.006 | Nexturastat A 0.019 | vemurafenib -0.094 | [5] -0.007 | [6] -0.005 | givinostat -0.055 | barasertib -0.097 | [7] 0.028 | volasertib 0.057 | [8] 0.027 | epoxomicin 0.003 | [9] 0.031 | [10] -0.088 | [11] -0.028 | rosiglitazone 0.032 | [12] -0.019 | [13] -0.04

STAMBP (UniProt O95630)
inactive: [1] 0.024 | [2] -0.037 | [3] 0.133 | [4] -0.051 | Nexturastat A 0.049 | vemurafenib 0.055 | [5] -0.023 | [6] 0.158 | givinostat 0.067 | barasertib 0 | [7] -0.028 | volasertib -0.21 | [8] 0.069 | epoxomicin -0.04 | [9] -0.056 | [10] -0.031 | [11] 0.027 | rosiglitazone 0.056 | [12] 0.048 | [13] -0.039

SRM (UniProt P19623)
inactive: [1] 0.015 | [2] 0 | [3] -0.004 | [4] 0.025 | Nexturastat A -0.035 | vemurafenib 0.012 | [5] 0.006 | [6] 0.005 | givinostat -0.038 | barasertib 0.001 | [7] 0.039 | volasertib 0.036 | [8] 0.01 | epoxomicin 0.04 | [9] 0.026 | [10] -0.061 | [11] 0.017 | rosiglitazone 0.029 | [12] -0.051 | [13] -0.051

SRSF1 (UniProt Q07955)
inactive: [1] -0.003 | [2] 0.042 | [3] -0.116 | [4] 0.002 | Nexturastat A 0.182 | vemurafenib -0.032 | [5] -0.061 | [6] 0.077 | givinostat -0.002 | barasertib -0.118 | [7] 0.225 | volasertib 0.264 | [8] -0.024 | epoxomicin -0.234 | [9] -0.032 | [10] 0.155 | [11] -0.136 | rosiglitazone -0.13 | [12] 0.191 | [13] 0.212

STIP1 isoform 2 (UniProt P31948)
inactive: [1] 0.044 | [2] -0.011 | [3] -0.023 | [4] 0.058 | Nexturastat A -0.112 | vemurafenib 0.022 | [5] -0.01 | [6] -0.001 | givinostat -0.029 | barasertib -0.004 | [7] -0.038 | volasertib 0.008 | [8] 0.015 | epoxomicin 0.004 | [9] 0.013 | [10] -0.015 | [11] -0.003 | rosiglitazone 0.004 | [12] -0.067 | [13] 0.023

SPTLC2 (UniProt O15270)
inactive: [1] 0.049 | [2] -0.019 | [3] 0.007 | [4] 0.015 | Nexturastat A -0.06 | vemurafenib 0.005 | [5] 0.021 | [6] -0.001 | givinostat 0.003 | barasertib 0.026 | [7] 0.055 | volasertib -0.044 | [8] -0.014 | epoxomicin 0.013 | [9] 0 | [10] -0.043 | [11] 0.013 | rosiglitazone 0.028 | [12] -0.056 | [13] -0.012

SRGN (UniProt P10124)
inactive: [1] 0.124 | [2] 0.002 | [3] -0.071 | [4] 0.004 | Nexturastat A 0.037 | vemurafenib 0.096 | [5] 0.049 | [6] 0.047 | givinostat 0.023 | barasertib -0.047 | [7] 0.229 | volasertib 0.093 | [8] -0.012 | epoxomicin -0.097 | [9] -0.036 | [10] -0.076 | [11] -0.276 | rosiglitazone -0.035 | [12] 0.001 | [13] 0.2

ST7 (UniProt Q9NRC1)
inactive: [1] -0.04 | [2] 0.013 | [3] 0.039 | [4] -0.083 | Nexturastat A 0.034 | vemurafenib 0.012 | [5] 0.095 | [6] -0.039 | givinostat 0.189 | barasertib -0.013 | [7] 0.055 | volasertib -0.121 | [8] -0.015 | epoxomicin 0.025 | [9] -0.017 | [10] -0.061 | [11] 0.029 | rosiglitazone 0.017 | [12] 0.045 | [13] -0.11

SRR (UniProt Q9GZT4)
inactive: [1] -0.025 | [2] 0.194 | [3] 0.037 | [4] -0.014 | Nexturastat A -0.167 | vemurafenib -0.009 | [5] 0.076 | [6] -0.028 | givinostat 0 | barasertib 0.063 | [7] -0.078 | volasertib -0.135 | [8] 0.01 | epoxomicin 0.021 | [9] -0.044 | [10] 0.063 | [11] -0.031 | rosiglitazone -0.038 | [12] -0.016 | [13] 0

SSNA1 (UniProt O43805)
inactive: [1] 0.024 | [2] -0.025 | [3] -0.001 | [4] 0.089 | Nexturastat A -0.033 | vemurafenib -0.035 | [5] -0.003 | [6] -0.003 | givinostat -0.1 | barasertib 0.011 | [7] 0.02 | volasertib 0.009 | [8] 0 | epoxomicin 0.018 | [9] 0.028 | [10] -0.014 | [11] -0.059 | rosiglitazone 0.009 | [12] -0.021 | [13] 0.024
